Results as given in paper PMC2517984, “TatBC, TatB, and TatC form structurally autonomous units within the twin arginine protein transport system of Escherichia coli” (Febs Letters, 2007).
Results are given in words; binding and its absence hold for the method and conditions named. Some binding calls cover weakened binding; strength is not graded here. Sequences can lack the tags named with a protein. Each block holds one binder with its values, some of them ahead of it.

Tests used:
[1] = biological target: T1, TatC with a hexa-histidine tag on the C-terminus, co-produced with TatB (with or without TatA, TatD, TatE) (Escherichia coli) (UniProt P69423); experiment: co-purification by Ni(II) affinity chromatography + SEC; TatCHis-containing complexes from digitonin-solubilized membranes of strain DADE producing TatABCHisDE; Ni(II) HiTrap column, then Superose 6 in 20 mM MOPS-HCl pH 7.2, 200 mM NaCl, 0.1% digitonin; peak fraction on SDS-PAGE, Coomassie
T1 sequence: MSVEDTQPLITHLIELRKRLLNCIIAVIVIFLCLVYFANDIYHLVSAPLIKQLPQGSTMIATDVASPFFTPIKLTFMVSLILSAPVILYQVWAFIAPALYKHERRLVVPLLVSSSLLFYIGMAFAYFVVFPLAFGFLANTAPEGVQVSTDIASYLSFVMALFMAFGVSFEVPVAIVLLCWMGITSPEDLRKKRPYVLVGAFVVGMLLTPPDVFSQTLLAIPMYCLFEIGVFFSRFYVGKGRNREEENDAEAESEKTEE

[2] = biological target: TatC with a hexa-histidine tag on the C-terminus, produced alone from pFAT588 (Escherichia coli (strain MC4100)) (UniProt P69423); experiment: cross-linking; disulfide links between TatC protomers formed during solubilization and purification; purified TatCHis on SDS-PAGE, Coomassie and immunoblot; oligomers decreased with reductant or DTT; both purified
[3] = biological target: TatC with a hexa-histidine tag on the C-terminus, produced alone from pFAT588 (Escherichia coli (strain MC4100)) (UniProt P69423); experiment: native gel or EMSA; BN-PAGE (5-18% gradient) of digitonin-solubilized whole membranes of the ΔtatABC strain C43ΔTat(DE3) overproducing the TatCHis variants; anti-His tag immunoblot
[4] = biological target: TatC with a hexa-histidine tag on the C-terminus, produced alone from pFAT588 (Escherichia coli (strain MC4100)) (UniProt P69423); experiment: SEC; Superose 6 column, Ni(II) affinity-purified TatCHis from strain C43(DE3) in 20 mM MOPS-HCl pH 7.2, 200 mM NaCl, 0.1% digitonin; both purified
[5] = biological target: TatC with a hexa-histidine tag on the C-terminus, produced alone from pFAT588 (Escherichia coli (strain MC4100)) (UniProt P69423); experiment: native gel or EMSA; BN-PAGE (5-18% gradient) of digitonin-solubilized whole membranes of the Tat wild-type strain C43(DE3) overproducing the TatCHis variants; anti-His tag immunoblot
[6] = biological target: TatC with a hexa-histidine tag on the C-terminus, produced alone from pFAT588 (Escherichia coli (strain MC4100)) (UniProt P69423); experiment: native gel or EMSA; BN-PAGE (4-16% gradient) of TatCHis variants purified in digitonin from the ΔtatABC strain C43ΔTat(DE3); Coomassie stained; both purified

binding [1]: binds
B1: TatA, untagged, co-produced with TatB and TatCHis (protein, UniProt P69428 1-89)
chain: MGGISIWQLLIIAVIVVLLFGTKKLGSIGSDLGASIKGFKKAMSDDEPKQDKTSQDADFTAKTIADKQADTNQEQAKTEDAKRHDKEQV

binding [2]: binds
binding [3]: binds
binding [4]: binds
binding [5]: binds
binding [6]: binds
B2: TatC with a hexa-histidine tag on the C-terminus, produced alone from pFAT588 (natural protein, Escherichia coli (strain MC4100), UniProt P69423 1-258, looked up)
chain: MVSVEDTQPLITHLIELRKRLLNCIIAVIVIFLCLVYFANDIYHLVSAPLIKQLPQGSTMIATDVASPFFTPIKLTFMVSLILSAPVILYQVWAFIAPALYKHERRLVVPLLVSSSLLFYIGMAFAYFVVFPLAFGFLANTAPEGVQVSTDIASYLSFVMALFMAFGVSFEVPVAIVLLCWMGITSPEDLRKKRPYVLVGAFVVGMLLTPPDVFSQTLLAIPMYCLFEIGVFFSRFYVGKGRNREEENDAEAESEKTEE
notes: TatC, Escherichia coli; tatC gene amplified from chromosomal DNA of strain MC4100, cloned NcoI/BglII into pQE60; protomer molecular weight printed as 28.9 kDa; also called TatCHis; source: E. coli strain C43(DE3) or its ΔtatABC derivative C43ΔTat(DE3), overproduced from pFAT588; digitonin-solubilized membranes; not shown: His6, C-terminal, kept
